These results are taken from PMC2954829.

The target in assay [1] is T1, mouse Sfr1 (303 amino acids), Gal4 fusion for yeast two-hybrid (mouse) (UniProt Q8BP27).
T1 sequence: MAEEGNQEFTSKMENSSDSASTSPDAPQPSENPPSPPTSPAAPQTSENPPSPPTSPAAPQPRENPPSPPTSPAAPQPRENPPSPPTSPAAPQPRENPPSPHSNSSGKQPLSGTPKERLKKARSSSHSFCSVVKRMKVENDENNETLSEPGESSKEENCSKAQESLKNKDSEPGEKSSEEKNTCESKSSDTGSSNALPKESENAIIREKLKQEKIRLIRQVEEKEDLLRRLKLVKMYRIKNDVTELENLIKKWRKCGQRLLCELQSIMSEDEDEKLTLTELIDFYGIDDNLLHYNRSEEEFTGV
Briefly: two-hybrid; Matchmaker Two-Hybrid system 3 (Clontech), Gal4AD (pGADT7) and Gal4DBD (pGBKT7) fusions; growth on SD media without leucine, tryptophan, histidine and adenine.

Assay [2] addresses T2, endogenous mouse Sfr1 (mouse (endogenous in ES cells)) (UniProt Q8BP27).
T2 sequence: T1 sequence
The assay is described as follows: co-IP; endogenous proteins, untreated mouse ES cell extract (200 µg), anti-Swi5 or anti-Sfr1 antibodies, Protein G Dynabeads, 4°C, washes with 200 mM NaCl/1% NP-40; Western blotting.

Assay [3] concerns the target GST-Swi5 (mouse, 89 amino acid form) (mouse). The assay is described as follows: pull-down; GST or GST fusion from E. coli lysate immobilized to MagneGST; mixed with E. coli lysate (40 µg of proteins) holding His6-Sfr1 or Rad51; R-buffer (20 mM Tris-HCl pH 7.6, 1 mM EDTA, 100 mM NaCl, 0.1% Triton X-100, 1 mM DTT, 10% glycerol), three hours at 4°C; CBB staining and Western blotting; for Rad51 also with ethidium bromide or DNase I; only the target purified. (A western blot detects proteins with antibodies after separation by electrophoresis.)

The target of assay [4] is GST fusion of the mouse Swi5 C-terminal half (mouse). The description is as above.
In assay [5] the target is GST-Swi5N (mouse Swi5 N-terminal half) (mouse). The description is as above.
Assay [6] has as its target endogenous mouse Swi5 (mouse (endogenous in ES cells)). The assay is described as follows: co-IP; endogenous proteins, untreated mouse ES cell extract (200 µg), anti-Swi5 or anti-Sfr1 antibodies, Protein G Dynabeads, 4°C, washes with 200 mM NaCl/1% NP-40; Western blotting.

No constants are given. Whether binding was seen depends on the method and setting. For some assays here: Binding can be weak; no strength is given. For some assays here: Where a sequence is shown, tags or fusion partners need not be part of it. For some assays here: Binding seen in cells or lysates may run through a third protein.

Turning to “mouse Swi5 N-terminal half, Gal4 activation domain fusion (domain or fragment)”, in assay [1], the binding entry is recorded as “binds”. In the case of “mouse Swi5 C-terminal half, Gal4 fusion for yeast two-hybrid (domain or fragment)”, the binding result in assay [1] was “no binding”. The same measure, in the same setting: with “mouse Swi5 (89 amino acid form), Gal4 fusion for yeast two-hybrid” the entry was “binds”. As for endogenous mouse Swi5, the binding entry in assay [2] is given as “binds”.

B1: His6-Sfr1 (mouse, 303 amino acids) (protein, UniProt Q8BP27-2 1-303)
chain: T1 sequence
On to B1, for which the binding result was “binds” in assay [3], “no binding” in assay [4] and “binds” in assay [5].

B2: endogenous mouse Sfr1 (protein, UniProt Q8BP27-2 1-303)
chain: T1 sequence
In the case of B2, the binding entry in assay [6] is reported as “binds”.
